According to PubChem BioAssay (NCATS):
Several values for one entry are separate records, joined by “and”; a condition that tells them apart may be missing. Equal values may be shown once. Inconclusive means that the source gave no clear call. Such entries were picked first, then a sample of the others. Potencies of inconclusive entries are doubtful fits and often do not repeat. Activity calls are given as the source filed them. Unless noted, calls follow the shape of the dose curve; as a rule, active = well fitted curve in the direction sought with a large enough effect; inconclusive = small, poorly fitted or top-dose-only effect, or another doubt; inactive = no such curve, though single readings can be large; an effect the other way counts as inactive or inconclusive.

Tests used:
[1] = Quantitative High-Throughput drug screen in 47 multiple myeloma cell lines against the NCATS MIPE library collection: UTMC2_PLB cell viability assay (AID 1919868); conditions: CellTiter-Glo ATP luminescence, 48 h; viability (% of DMSO control): at 45.8 µM (top of the series); also: nearly all actives have a fitted effect of over 55% in size
In short: (§1)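 Myeloma cells (500/well) treated with MIPE 4.0 compounds for 48 h at 37 °C, 5% CO2. Viability read as ATP via CellTiter-Glo luminescence after 5 min at RT; DMSO-only wells = 100%, media-only = 0% viability.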

[2] = Quantitative High-Throughput drug screen in 47 multiple myeloma cell lines against the NCATS MIPE library collection: PE2_PLB cell viability assay (AID 1919869); also: nearly all actives have a fitted effect of over 35% in size
In short: as §1

[3] = Quantitative High-Throughput drug screen in 47 multiple myeloma cell lines against the NCATS MIPE library collection: RPMI8226_ATCC cell viability assay (AID 1919871); also: nearly all actives have a fitted effect of over 30% in size
In short: as §1

[4] = Quantitative High-Throughput drug screen in 47 multiple myeloma cell lines against the NCATS MIPE library collection: OPM2_DSMZ cell viability assay (AID 1919872); also: nearly all actives have a fitted effect of over 30% in size
In short: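 Primary qHTS used for cherry-picking: cells at 500/well, library compounds for 48 h (37C, 5% CO2), luminescent ATP assay.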

[5] = Quantitative High-Throughput drug screen in 47 multiple myeloma cell lines against the NCATS MIPE library collection: KMS11_JCRBsus cell viability assay (AID 1919873); also: nearly all actives have a fitted effect of over 50% in size
In short: as §1

[6] = Quantitative High-Throughput drug screen in 47 multiple myeloma cell lines against the NCATS MIPE library collection: KMS28BM_JCRB cell viability assay (AID 1919874); also: nearly all actives have a fitted effect of over 35% in size
In short: as §1

HEK293 = test: Cytotoxic Profiling of Annotated Libraries Using Quantitative High-Throughput Screening (AID 1296008); conditions: Five cell lines viability, CellTiter-Glo ATP luminescence, 48-72 h; max response: active compounds read low; also: nearly all actives have a fitted effect of over 60% in size; as to max response: % is scaled to controls: 0 for no effect and ±100 for the full control effect
In short: (§2)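 Compounds were pin-transferred onto cells and incubated 48 or 72 hr at 37 degree Celsius, 95% humidity. CellTiter-Glo was added, plates sat 10 min at room temperature, then ATP-coupled luminescence was imaged as the viability read-out.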

HaCat = test: as above; conditions: Five cell lines viability, CellTiter-Glo ATP luminescence, 48-72 h; max response: active compounds read low
In short: as §2

[7] = Quantitative High-Throughput drug screen in 47 multiple myeloma cell lines against the NCATS MIPE library collection: PCM6_Riken cell viability assay (AID 1919870); conditions: CellTiter-Glo ATP, 48 h; viability (% of control): at 45.8 µM (top of the series); also: nearly all actives have a fitted effect of over 30% in size
In short: as §1

[8] = qHTS for identification of novel therapeutic agents for treatment of microphthalmiaassociated transcription factor (MiT) renal cell carcinoma (RCC) (AID 1963991; calls by dose curve); conditions: TFE3-RCC UOK109 viability, CellTiter-Glo, 48 h; active = Z-AUC below -0.8 in all three lines
In short: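 Three TFE3-fusion RCC lines (UOK109, UOK124, UOK145), 500 cells/well in complete medium, were treated with MIPE 4.0 compounds for 48 hours at 37 C. Viability was by CellTiter-Glo luminescence, normalized to DMSO (100%) and empty wells (0%); curves fitted over 11 concentrations.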

KB-3-1 = test: Cytotoxic Profiling of Annotated Libraries Using Quantitative High-Throughput Screening (AID 1296008); conditions: Five cell lines viability, CellTiter-Glo ATP luminescence, 48-72 h; max response: active compounds read low; also: nearly all actives have a fitted effect of over 60% in size; as to max response: % is scaled to controls: 0 for no effect and ±100 for the full control effect
In short: as §2

NIH3T3 = test: as above; conditions: Five cell lines viability, CellTiter-Glo ATP luminescence, 48-72 h; max response: active compounds read low
In short: as §2

MCC-13 = test: qHTS assay to identify novel small-molecules to repurpose for Merkel cell carcinoma treatment (AID 1296009); conditions: MCC and control cell lines, CellTiter-Glo viability, 72 h; series mostly up to 46 µM; also: nearly all actives have a fitted effect of over 60% in size
In short: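 Cells exposed to NPC (8-point) and MIPE (11-point) compound dilutions for 72 hr at 37 degree celsius; viability read by CellTiter-Glo luminescence, normalized to no-cell and DMSO in-plate controls.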
Potency is read from the fitted curve at half-maximal effect.

CCC(C)N(C)C(=O)c1cc2ccccc2c(-c2ccccc2Cl)n1 (centres undefined)
inactive: outcome (HaCat)
inconclusive: Potency [1] 0.0662 µM [rising, full curve, poor fit] | Potency [2] 18.7 µM [cytotoxic, partial curve, poor fit] | Potency [3] 4.18 µM [cytotoxic, partial curve, poor fit] | Potency [4] 3.72 µM [cytotoxic, partial curve, poor fit] | Potency [5] 18.7 µM [cytotoxic, single point] | Potency [6] 0.0743 µM [cytotoxic, full curve, poor fit] | Potency (HEK293) 33.2 µM [inhibitor, single point]

Cn1c(=O)c(Oc2ccc(F)cc2F)cc2cnc(NC3CCOCC3)nc21
inconclusive: Potency [1] 5.9 µM [rising, full curve, poor fit] | Potency [2] 0.296 µM [cytotoxic, full curve, poor fit] | Potency [7] 23.5 µM [cytotoxic, partial curve, poor fit] | Potency [3] 4.18 µM [cytotoxic, partial curve, poor fit] | Potency [8] 9.35 µM [falling, partial curve] | Potency (HEK293) 18.7 µM [inhibitor, partial curve] | Potency (HaCat) 20.9 µM [inhibitor, partial curve]

CC1(C)Cc2c(-c3ccccc3)c(-c3ccc(Cl)cc3)c(CC(=O)O)n2C1
inactive: Potency (MCC-13)
active: Potency [7] 20.9 µM | Potency [5] 18.7 µM
inconclusive: Potency [3] 23.5 µM [cytotoxic, single point] | Potency [8] 0.0059 µM | Potency (HEK293) 20.9 µM [inhibitor, partial curve] | Potency (KB-3-1) 29.1 µM [inhibitor, single point] | Potency (NIH3T3) 20.6 µM [inhibitor, single point]

CN[C@@H](C)C(=O)N[C@H]1CN(C(=O)CC(C)C)CC[C@H]2CC[C@@H](C(=O)NC(c3ccccc3)c3ccccc3)N2C1=O
active: Potency (HaCat) 16.6 µM and 23.1 µM
inconclusive: Potency [1] 23.5 µM [cytotoxic, partial curve, poor fit] | Potency [7] 1.48 µM [cytotoxic, full curve] | Potency [3] 33.2 µM [cytotoxic, single point] | Potency [5] 37.2 µM [cytotoxic, single point] | Potency [6] 37.2 µM [cytotoxic, single point] | Potency (HEK293) 29.1 µM [inhibitor, single point]

COc1cc(C(=O)NC2CCN(C)CC2)ccc1Nc1ncc2c(n1)N(C1CCCC1)CCC(=O)N2C(C)C
inconclusive: Potency [1] 4.18 µM [cytotoxic, partial curve, poor fit] | Potency [3] 23.5 µM [cytotoxic, partial curve] | Potency [4] 20.9 µM [cytotoxic, single point] | Potency [8] 4.18 µM [falling, partial curve] | Potency (KB-3-1) 29.6 µM [inhibitor, single point] | Potency (MCC-13) 18.7 µM [inhibitor, partial curve]
active: Potency [7] 18.7 µM | Potency [6] 14.8 µM | Potency (HEK293) 8.33 µM

NC(=O)c1ccc2nc(-c3ccc(Oc4ccc(Cl)cc4)cc3)[nH]c2c1
inconclusive: Potency [1] 4.69 µM [cytotoxic, partial curve, poor fit] | Potency [2] 2.96 µM [cytotoxic, partial curve, poor fit] | Potency [3] 29.6 µM [cytotoxic, partial curve, poor fit] | Potency [4] 2.96 µM [cytotoxic, full curve, poor fit] | Potency [6] 29.6 µM [cytotoxic, single point] | Potency [8] 0.0132 µM [falling, full curve] | Potency (HEK293) 37.2 µM [inhibitor, single point] and 29.1 µM [inhibitor, single point] | Potency (KB-3-1) 33.2 µM [inhibitor, single point]

CCOC(=O)C1=C[C@]2(CC)CCCN3CCc4c(n1c1ccccc41)[C@@H]32
inconclusive: Potency [8] 18.7 µM [falling, partial curve] | Potency (HEK293) 26.4 µM [inhibitor, single point] and 21.1 µM [inhibitor, single point] | Potency (KB-3-1) 33.2 µM [inhibitor, single point] | Potency (NIH3T3) 29.6 µM [inhibitor, single point]
active: Potency [2] 9.35 µM | Potency [6] 8.33 µM
inactive: max response (NIH3T3) -12.6%

C[C@]12CCC3c4ccc(O)cc4CCC3C1CCC2=O (some centres undefined)
inactive: Potency [2] | max response (HEK293) -11.3% | max response (HaCat) -11.3% | max response (NIH3T3) -7.72%
inconclusive: Potency [8] 4.69 µM [falling, partial curve, poor fit]
